Measurements published in PMC9888389.
Substitutions are numbered along the chain they refer to. In names and notes the source's numbering stands. No constants are given. Whether binding was seen depends on the method and setting. In cells and extracts the contact can be indirect. Some results given as binding are weak or reduced against the parent protein; the word gives no strength. For part of these data: Where a sequence is shown, tags or fusion partners need not be part of it. Values belong to the binder of their own block, whether it stands above or below them.

Experiments:
[1] = target: T1, FLAG-Trx1 C35S-HA expressed in a cardiac-specific manner in transgenic mice (trapping mice) (UniProt P10599); assay: co-IP; heart homogenates (sham or ischemic areas, ischemia 20 min) of Tg-Flag-Trx1 C35S and WT mice; anti-FLAG-agarose beads, immunoblot for Atg7; interaction strengthened by ischemia
T1 sequence: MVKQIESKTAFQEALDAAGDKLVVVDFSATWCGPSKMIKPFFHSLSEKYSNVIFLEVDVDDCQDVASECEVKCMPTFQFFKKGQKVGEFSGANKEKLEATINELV

[2] = target: T2, Trx1 trapping mutant (Trx1 C35S) coexpressed with the Atg7 mutants (Figure 3F) (human) (UniProt P10599); assay: co-IP; HEK293 cells with the indicated plasmids for 48 h (legend; the text says cardiomyocytes); Atg7 WT or mutants coexpressed with the Trx1 trapping mutant
T2 sequence: T1 sequence

binding [1]: binds
B1: Atg7, endogenous in mouse heart (enzyme, UniProt Q9D906 1-698)
chain: MGDPGLAKLQFAPFNSALDVGFWHELTQKKLNEYRLDEAPKDIKGYYYNGDSAGLPTRLTLEFSAFDMSASTPAHCCPAMGTLHNTNTLEAFKTADKKLLLEQSANEIWEAIKSGAALENPMLLNKFLLLTFADLKKYHFYYWFCCPALCLPESIPLIRGPVSLDQRLSPKQIQALEHAYDDLCRAEGVTALPYFLFKYDDDTVLVSLLKHYSDFFQGQRTKITVGVYDPCNLAQYPGWPLRNFLVLAAHRWSGSFQSVEVLCFRDRTMQGARDVTHSIIFEVKLPEMAFSPDCPKAVGWEKNQKGGMGPRMVNLSGCMDPKRLAESSVDLNLKLMCWRLVPTLDLDKVVSVKCLLLGAGTLGCNVARTLMGWGVRHVTFVDNAKISYSNPVRQPLYEFEDCLGGGKPKALAAAERLQKIFPGVNARGFNMSIPMPGHPVNFSDVTMEQARRDVEQLEQLIDNHDVIFLLMDTRESRWLPTVIAASKRKLVINAALGFDTFVVMRHGLKKPKQQGAGDLCPSHLVAPADLGSSLFANIPGYKLGCYFCNDVVAPGDSTRDRTLDQQCTVSRPGLAVIAGALAVELMVSVLQHPEGGYAIASSSDDRMNEPPTSLGLVPHQIRGFLSRFDNVLPVSLAFDKCTACSPKVLDQYEREGFTFLAKVFNSSHSFLEDLTGLTLLHQETQAAEIWDMSDEETV

binding [2]: binds
B2: Atg7(C548S) (enzyme, UniProt Q9D906 1-698)
chain: B1 chain with C548S

binding [2]: binds
B3: Atg7(C545S) (enzyme, UniProt Q9D906 1-698)
chain: B1 chain with C545S
